We go through four molecules from patent US20060229240A1 (GARDELL ET AL, published 2006).

Sequences of proteins named here, by UniProt entry; tags and fusion partners are left off. A change or cut given only in a name is not applied to a line headed by its entry. Residues count along the entry.
UniProt Q03431, residues 27-593: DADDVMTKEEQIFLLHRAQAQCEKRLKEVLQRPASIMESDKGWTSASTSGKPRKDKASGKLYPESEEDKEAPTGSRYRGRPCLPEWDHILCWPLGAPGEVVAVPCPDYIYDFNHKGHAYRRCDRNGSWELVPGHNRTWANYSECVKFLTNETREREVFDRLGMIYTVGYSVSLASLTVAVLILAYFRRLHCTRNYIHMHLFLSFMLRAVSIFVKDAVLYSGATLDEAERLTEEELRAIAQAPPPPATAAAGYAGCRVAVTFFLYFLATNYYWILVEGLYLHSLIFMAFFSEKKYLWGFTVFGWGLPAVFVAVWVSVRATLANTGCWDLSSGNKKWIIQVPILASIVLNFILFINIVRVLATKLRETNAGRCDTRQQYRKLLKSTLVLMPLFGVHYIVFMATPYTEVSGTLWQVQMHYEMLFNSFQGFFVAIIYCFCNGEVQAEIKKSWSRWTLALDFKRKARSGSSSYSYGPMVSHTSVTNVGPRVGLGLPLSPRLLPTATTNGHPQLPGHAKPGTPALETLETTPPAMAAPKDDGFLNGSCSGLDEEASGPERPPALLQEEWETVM

Results are given in words; binding and its absence hold for the method and conditions named. Some entries that bind do so weakly or less than the wild type.

The target of the experiment is PTH/PTHrP receptor (P1R), wild-type, full-length (human) (UniProt Q03431). Kind of experiment: radioligand competition on HKRK-B28 cells expressing P1R.
Turning to SVSEIQLMHNLGKHLNSMERVEWLRKKLQDVHNY (C-terminal amide) [PTH(1-34) ([Tyr^34]hPTH(1-34)amide)], the binding entry is reported as “binds”.
The value for SVSEIQLMHALGKHLNSMERVEWLRKKLQDVHNY (C-terminal amide) [[Ala^10]PTH(1-34)] was “binds”.
Regarding SVSEIALMHALGKHLNSMERVEWLRKKLQDVHNY (C-terminal amide) [[Ala^6,10]PTH(1-34)], the binding result is listed as “binds”.
Turning to SVSEIALMHNLGKHLNSMERVEWLRKKLQDVHNY (C-terminal amide) [[Ala^6]PTH(1-34)], the binding result was “binds”.
